Results: patent US20150276762A1 (NVH MEDICINAL, published 2015)
Results are given in words; binding and its absence hold for the method and conditions named. Some binding calls cover weakened binding; strength is not graded here.

Sequences of proteins named here, by UniProt entry; tags and fusion partners are left off. Residues count along the entry.
UniProt P04275, residues 764-2813: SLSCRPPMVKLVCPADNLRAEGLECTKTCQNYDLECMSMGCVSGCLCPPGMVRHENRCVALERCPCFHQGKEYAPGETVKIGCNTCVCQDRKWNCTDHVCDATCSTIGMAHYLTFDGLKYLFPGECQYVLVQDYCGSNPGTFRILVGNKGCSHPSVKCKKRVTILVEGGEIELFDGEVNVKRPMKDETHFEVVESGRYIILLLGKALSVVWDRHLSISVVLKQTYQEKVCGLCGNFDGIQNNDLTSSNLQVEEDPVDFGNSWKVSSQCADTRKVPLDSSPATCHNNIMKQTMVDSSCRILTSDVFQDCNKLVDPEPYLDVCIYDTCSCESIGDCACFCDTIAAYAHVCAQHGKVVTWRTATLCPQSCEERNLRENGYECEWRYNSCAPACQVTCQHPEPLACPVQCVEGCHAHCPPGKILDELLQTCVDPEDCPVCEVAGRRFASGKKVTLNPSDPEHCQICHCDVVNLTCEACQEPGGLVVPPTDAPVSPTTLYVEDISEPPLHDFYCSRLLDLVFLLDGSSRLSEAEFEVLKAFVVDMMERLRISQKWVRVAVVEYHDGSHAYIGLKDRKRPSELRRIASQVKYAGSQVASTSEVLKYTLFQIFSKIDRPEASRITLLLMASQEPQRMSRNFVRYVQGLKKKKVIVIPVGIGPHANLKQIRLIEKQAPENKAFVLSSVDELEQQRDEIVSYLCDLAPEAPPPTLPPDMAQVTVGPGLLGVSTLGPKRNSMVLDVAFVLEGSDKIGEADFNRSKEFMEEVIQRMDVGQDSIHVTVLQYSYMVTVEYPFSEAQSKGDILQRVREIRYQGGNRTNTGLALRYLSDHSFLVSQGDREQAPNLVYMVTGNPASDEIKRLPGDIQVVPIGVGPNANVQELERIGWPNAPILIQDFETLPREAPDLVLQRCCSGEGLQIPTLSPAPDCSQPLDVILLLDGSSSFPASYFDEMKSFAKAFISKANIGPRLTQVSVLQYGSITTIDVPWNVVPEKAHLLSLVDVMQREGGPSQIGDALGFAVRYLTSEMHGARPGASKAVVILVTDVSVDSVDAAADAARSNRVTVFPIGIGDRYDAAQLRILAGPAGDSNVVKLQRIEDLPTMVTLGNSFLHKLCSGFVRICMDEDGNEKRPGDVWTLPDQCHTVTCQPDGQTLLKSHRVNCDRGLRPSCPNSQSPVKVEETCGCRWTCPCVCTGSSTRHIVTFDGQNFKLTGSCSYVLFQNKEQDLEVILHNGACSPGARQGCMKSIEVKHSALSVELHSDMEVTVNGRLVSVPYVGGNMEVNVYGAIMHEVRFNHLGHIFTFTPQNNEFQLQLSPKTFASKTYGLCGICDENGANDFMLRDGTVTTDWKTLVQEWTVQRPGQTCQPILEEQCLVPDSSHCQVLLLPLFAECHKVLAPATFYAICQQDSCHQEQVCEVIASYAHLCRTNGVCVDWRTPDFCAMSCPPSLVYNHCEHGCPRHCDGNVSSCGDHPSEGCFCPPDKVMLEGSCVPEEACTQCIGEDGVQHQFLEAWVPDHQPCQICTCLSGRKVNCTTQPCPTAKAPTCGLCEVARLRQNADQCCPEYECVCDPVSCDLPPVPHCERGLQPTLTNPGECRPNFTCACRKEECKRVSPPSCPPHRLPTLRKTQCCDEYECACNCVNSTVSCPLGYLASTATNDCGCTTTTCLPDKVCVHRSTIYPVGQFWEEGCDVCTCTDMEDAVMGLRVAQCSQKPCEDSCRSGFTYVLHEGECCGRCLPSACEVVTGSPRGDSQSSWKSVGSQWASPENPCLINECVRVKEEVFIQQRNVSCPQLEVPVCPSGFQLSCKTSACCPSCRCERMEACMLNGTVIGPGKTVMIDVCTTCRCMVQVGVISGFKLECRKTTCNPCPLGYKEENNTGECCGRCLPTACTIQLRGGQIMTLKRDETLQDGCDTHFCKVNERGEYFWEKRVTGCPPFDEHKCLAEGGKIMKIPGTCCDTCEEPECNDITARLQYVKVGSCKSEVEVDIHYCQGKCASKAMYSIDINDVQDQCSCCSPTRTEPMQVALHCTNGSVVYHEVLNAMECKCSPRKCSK
UniProt P02461, residues 154-1221: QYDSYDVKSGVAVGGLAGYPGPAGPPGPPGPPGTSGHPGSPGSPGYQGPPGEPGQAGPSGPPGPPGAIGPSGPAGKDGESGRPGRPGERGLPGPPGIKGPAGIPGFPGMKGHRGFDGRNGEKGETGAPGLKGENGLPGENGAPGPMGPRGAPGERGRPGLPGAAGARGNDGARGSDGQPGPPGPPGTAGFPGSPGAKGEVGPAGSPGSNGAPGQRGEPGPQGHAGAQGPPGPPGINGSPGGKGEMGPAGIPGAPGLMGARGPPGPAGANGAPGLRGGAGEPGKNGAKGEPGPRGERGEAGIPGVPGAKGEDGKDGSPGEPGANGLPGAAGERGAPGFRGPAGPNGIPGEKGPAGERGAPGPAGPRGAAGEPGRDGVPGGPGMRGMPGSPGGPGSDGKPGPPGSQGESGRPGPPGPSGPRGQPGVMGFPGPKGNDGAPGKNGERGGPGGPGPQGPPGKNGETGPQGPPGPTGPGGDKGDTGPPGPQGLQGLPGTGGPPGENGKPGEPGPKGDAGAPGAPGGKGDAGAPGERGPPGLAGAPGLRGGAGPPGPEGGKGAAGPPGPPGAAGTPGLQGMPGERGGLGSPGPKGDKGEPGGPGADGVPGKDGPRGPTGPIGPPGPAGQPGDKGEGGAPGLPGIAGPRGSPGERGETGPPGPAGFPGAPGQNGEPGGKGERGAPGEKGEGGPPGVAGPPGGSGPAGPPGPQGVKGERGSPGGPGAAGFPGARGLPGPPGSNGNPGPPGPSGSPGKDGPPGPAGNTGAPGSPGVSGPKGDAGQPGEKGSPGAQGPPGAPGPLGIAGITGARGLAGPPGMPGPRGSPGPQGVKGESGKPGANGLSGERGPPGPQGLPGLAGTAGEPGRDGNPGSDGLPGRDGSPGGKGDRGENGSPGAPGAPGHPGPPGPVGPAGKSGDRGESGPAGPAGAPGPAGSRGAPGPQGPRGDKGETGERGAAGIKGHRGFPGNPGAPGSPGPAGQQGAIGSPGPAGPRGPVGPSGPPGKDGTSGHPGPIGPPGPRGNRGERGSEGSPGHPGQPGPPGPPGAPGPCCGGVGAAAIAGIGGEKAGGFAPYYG

Legend:
[1] = molecular target: purified von Willebrand factor (Wilfactin, 100 IU/ml, LFB) (UniProt P04275); assay: ELISA, coated at 10 or 2 µg/ml
[2] = molecular target: purified von Willebrand factor (Wilfactin, 100 IU/ml, LFB) (UniProt P04275); assay: ELISA, coated at 2 µg/ml, vWF at 0 to 2 IU/dl
[3] = molecular target: purified von Willebrand factor (Wilfactin, 100 IU/ml, LFB) (UniProt P04275); assay: ELISA, coated at 0.03125 to 2 µg/ml, vWF at 2 IU/dl
[4] = molecular target: purified von Willebrand factor (Wilfactin, 100 IU/ml, LFB) (UniProt P04275); assay: ELISA, coated at 10 or 2 µg/ml, vWF at 0, 0.4 and 2 IU/dl

Measured: binding

type III collagen (BD Biosciences), used as a reference (from UniProt P02461 154-1221)
binds: all assays above
